According to PubChem BioAssay AID504444 (National Center for Advancing Translational Sciences (NCATS), 2011):
Out of some 360,000 compounds screened, about 7,500 (2.1%) were called active. This list was built around the results that the source calls inconclusive (neither active nor inactive); the mix of calls is not that of the screen. The call rests on the fitted dose curve; in most records, active means well fitted inhibition curve with a large enough effect; inconclusive means small, poorly fitted or top-dose-only effect, or effect the other way; inactive means flat fitted curve, though single readings scatter. Potencies beside an inconclusive call are fits to weak or partial responses and may not hold up.

Test: Nrf2 qHTS screen for inhibitors; further: nearly all actives have a fitted effect of over 60% in size
Conditions: A549 ARE-Fluc reporter, luciferase luminescence, 18-24 h; activity change, negative = inhibition: at 46 µM (top of the series)
In short: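 Concentration-response testing used A549 ARE_Fluc cells at 5000 cells/well. Following an 18-24 h compound incubation, viability was read by fluorescence (Ex 405/Em 525) and luciferase output by luminescence.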
On the % scale 0 is the no-effect control and ±100 the full control effect; potency means the concentration at half of the fitted maximal effect.

SMILES	Potency	activity change, negative = inhibition
Cc1ccc2onc(CNC(=O)Nc3cc(F)ccc3F)c2c1	inconclusive: 10.3 µM [falling, partial curve]	–
Cc1cccc(C)c1NC(=O)CN(C)C(=O)CCc1nc2sc3c(c2c(=O)[nH]1)CCCC3	inconclusive: 29.1 µM [falling, single point]	–
Cc1ccn2c(Nc3ccc4c(c3)OCCO4)c(-c3cccs3)nc2c1	–	inactive: 5.93%
Cc1ccccc1-c1nnc(-c2ccccc2)o1	inconclusive: 18.4 µM [activator, partial curve]	–
Cc1ccccc1OCCn1c(C)nc2ccccc21	active: 8.2 µM	–
O=C([C@H](Cc1ccccc1)N1C(=O)c2ccccc2C1=O)N1CCOCC1	inconclusive: 2.59 µM [activator, full curve, poor fit]	–
O=C(CC1NCCc2ccccc21)Nc1ccc(Cl)cc1 (stereo unspecified)	inconclusive: 14.6 µM [activator, partial curve]	–
N#Cc1c(-c2c(Cl)cccc2Cl)noc1/C=C/Nc1ccc(C(=O)O)cc1	inconclusive: 29.1 µM [falling, single point]	–
O=C(CSc1nnc(-c2ccc(Cl)cc2)o1)Nc1ccc(F)cc1	inconclusive: 20.6 µM [activator, partial curve]	–
Cc1cccc(NS(=O)(=O)c2cc(C(=O)N3CCCCCC3)ccc2C)c1	inconclusive: 13 µM [falling, partial curve, poor fit]	–
COc1ccc(Cc2nc3ccc(C(=O)NCCc4ccccn4)cc3o2)cc1OC	inconclusive: 32.6 µM [falling, partial curve, poor fit]	–
CC(=O)N1CCc2c(sc3c2c(=O)n(CCc2ccccc2)c(=O)n3CC(=O)Nc2ccc(C)c(F)c2)C1	inconclusive: 23.1 µM [falling, partial curve, poor fit]	–
Cn1c(C(=O)NCc2ccccn2)cc2c(=O)n(C)c3ccccc3c21	inconclusive: 32.6 µM [falling, single point]	–
COc1ccc2nc(/C=N/NC(=O)CCCCCNC(=O)OC(C)(C)C)ccc2c1	inconclusive: 32.6 µM [falling, single point]	–
CC1(C)Cc2nc3sc(C(=O)NCCCO)c(N)c3cc2CS1	inconclusive: 7.31 µM [activator, partial curve, poor fit]	–
COc1ccc(NC(=O)CSc2nc(C)cs2)cc1	inconclusive: 18.4 µM [activator, partial curve]	–
COc1cc(/C=C/c2c([N+](=O)[O-])c(=O)n(C)c(=O)n2C)cc(OC)c1OC	inconclusive: 11.6 µM [falling, partial curve, poor fit]	–
O=C(CSCc1ccco1)c1cccs1	inconclusive: 2.31 µM [activator, partial curve, poor fit]	–
COc1ccccc1Cn1c(=S)[nH]c2cc(C(=O)NCc3cccnc3)ccc2c1=O	inconclusive: 7.31 µM [falling, partial curve, poor fit]	–
C=CCc1cccc(/C=N/NC(=O)CCCNc2ccc(C)cc2)c1O	–	inactive: -14.1%
CC(C)Cn1c(=O)c2ccccc2n2c(CCC(=O)N3CCN(c4ccccc4)CC3)nnc12	–	inactive: -18.1%

SMILES	Potency	activity change, negative = inhibition
COc1cc(OC)cc(C(=O)NNC(=O)c2ccc3ccccc3n2)c1	inconclusive: 29.1 µM [falling, single point]	–
Cc1ccc(Cl)cc1N1CCN(S(=O)(=O)c2ccc3[nH]c(=O)ccc3c2)CC1	inconclusive: 20.6 µM [falling, partial curve]	–
COc1ccc(C(=O)Nc2nnc(C)s2)cc1	inconclusive: 6.51 µM [activator, full curve, poor fit]	–
CC(C)c1ccc(C2c3c(-c4ccccc4O)n[nH]c3C(=O)N2Cc2ccncc2)cc1 (stereo unspecified)	inconclusive: 29.1 µM [falling, single point]	–
Cc1cc(C)c2nc(N3CCCC(C(=O)NCCCN4CCOCC4)C3)sc2c1 (stereo unspecified)	inconclusive: 25.9 µM [activator, partial curve, poor fit]	–
COCc1ccc(C(=O)N2CCCC(Nc3ccc(C(C)C)cc3)C2)s1 (stereo unspecified)	inconclusive: 23.1 µM [falling, single point]	–
COc1ccc(CCC(=O)Nc2ccc(C)c(S(=O)(=O)N(C)C)c2)cc1OC	active: 13 µM	–
CCc1sc(-c2cc3cccc(OC)c3oc2=O)nc1-c1ccccc1	–	inactive: 4.24%
Cc1ccc(-c2nnc(OCC3CCCO3)c3ccccc23)cc1 (stereo unspecified)	inconclusive: 11.6 µM [falling, partial curve, poor fit]	–
N#Cc1ccccc1Cn1cc(/C=C/[N+](=O)[O-])c2ccccc21	inconclusive: 23.1 µM [falling, single point]	–
COC(=O)c1ccc(C(NC(=O)OCc2ccccc2)/C(F)=C/[C@@H](C)C(=O)NCc2ccc(OC)c(OC)c2)cc1 (stereo partly specified)	inconclusive: 23.1 µM [falling, partial curve]	–
Brc1ccc(/C=C/C=N/Nc2nc3ccccc3s2)cc1	inconclusive: 29.1 µM [falling, single point]	–
O=[N+]([O-])c1ccccc1Nc1ccccc1	inconclusive: 14.6 µM [falling, partial curve, poor fit]	–
COc1cccc(Nc2ncccc2C(=O)Nc2ccccc2)c1	active: 20.6 µM	–
Cc1nn(CC(=O)NCCc2ccccc2)c(=O)c2ccccc12	–	inactive: 13.1%
O=S(Cc1ccc(Br)cc1)Cc1nnc(SCc2ccc(Br)cc2)n1-c1ccccc1 (stereo unspecified)	inconclusive: 20.6 µM [falling, partial curve]	–
Nc1ccc(-c2cnc3ccccc3n2)cc1	inconclusive: 0.92 µM [activator, full curve]	–
O=C(NCCc1c[nH]c2ccc(Cl)cc12)c1cccnc1	inconclusive: 0.82 µM [activator, partial curve, poor fit]	–
Cc1cccc(C)c1NC(=O)c1sccc1SCc1cccc(C(F)(F)F)c1	inconclusive: 23.1 µM [falling, single point]	–
COc1cccc(N2CCN(C(=O)CCc3c(C)nc4c(c3C)c(=O)n(C)c(=O)n4C)CC2)c1	–	inactive: 3.76%

3 neighbouring entries already listed, quoted:
SMILES	Potency	activity change, negative = inhibition
N#Cc1ccccc1Cn1cc(/C=C/[N+](=O)[O-])c2ccccc21	inconclusive: 23.1 µM [falling, single point]	–
COC(=O)c1ccc(C(NC(=O)OCc2ccccc2)/C(F)=C/[C@@H](C)C(=O)NCc2ccc(OC)c(OC)c2)cc1 (stereo partly specified)	inconclusive: 23.1 µM [falling, partial curve]	–
Brc1ccc(/C=C/C=N/Nc2nc3ccccc3s2)cc1	inconclusive: 29.1 µM [falling, single point]	–
